Laboratory results from PubChem BioAssay AID504467 (National Center for Advancing Translational Sciences (NCATS), 2011).
The whole screen tested about 330,000 compounds, of which about 7,700 (2.3%) were called active. This list was built around the results that the source calls inconclusive (neither active nor inactive); the mix of calls is not that of the screen. The call rests on the fitted dose curve; in most records, active means well fitted inhibition curve with a large enough effect; inconclusive means small, poorly fitted or top-dose-only effect, or effect the other way; inactive means flat fitted curve, though single readings scatter. A potency beside an inconclusive call is a rough fit, not a confirmed value.

test: qHTS screen for small molecules that inhibit ELG1-dependent DNA repair in human embryonic kidney (HEK293T) cells expressing luciferase-tagged ELG1; details: HEK293T ELG1-luciferase reporter, luminescence, 16 h, DNA damage induced by 5-fluorouridine; series mostly up to 46.1 µM; further: nearly all actives have a fitted effect of over 55% in size
Method in brief: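 Luminescence from the luciferase reporter, measured 30 min after ONE-Glo reagent at room temperature, was the read-out. Beforehand, 2,000 cells per well were exposed for 16 hr at 37 °C to 5-fluorouridine together with compound or vehicle.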
Potency means the concentration at half of the fitted maximal effect.

Compound	Potency
COc1ccc(OC)c(Cc2nnc(CCC(=O)NCc3ccsc3)o2)c1	inconclusive: 20.6 µM [activator, single point]
O=C(O)c1ccc(S(=O)(=O)Nc2ccc3c(c2)OCCO3)cc1	inactive
COc1ccc(CC(=O)NC(c2ccccc2)c2ccccc2)cc1S(=O)(=O)N1CCOCC1	inconclusive: 25.9 µM [inhibitor, partial curve]
Cc1ccc(C(=O)CNc2ccc(Br)cc2)cc1	inconclusive: 25.1 µM [activator, single point]
CCOC(=O)C1=C(c2ccccc2)c2ccc(OC)cc2N(S(=O)(=O)C(F)(F)F)C1C(=O)OCC (centres undefined)	active: 14.6 µM
O=C(CCc1nnc(CCCCc2ccccc2)o1)NCCN1CCOC1=O	inactive
CC(C)C(=O)Nc1cccc(NC(=S)NC(=O)c2cccs2)c1	inconclusive: 9.2 µM [activator, partial curve]
O=C(NNC(=S)NC(=O)c1cccc([N+](=O)[O-])c1)c1ccc(Br)cc1	inconclusive: 23.1 µM [inhibitor, single point]
Cc1ccc(Nc2c([N+](=O)[O-])c(=O)n(C)c3ccccc23)cc1C	inconclusive: 29.1 µM [inhibitor, single point]
Clc1cccc(Oc2ncc(CN3CCOCC3)s2)c1	inconclusive: 29.1 µM [activator, single point]
Cc1ccccc1C(=O)NCCCc1ccccc1	inconclusive: 18.4 µM [activator, partial curve]
CC(C)CNC(=O)COC(=O)c1c2c(nc3ccccc13)/C(=C/c1cccs1)CC2	inconclusive: 29.1 µM [inhibitor, single point]
COc1ccc(/C=N/NC(=O)CN(Cc2ccccc2)S(=O)(=O)c2ccc3c(c2)OCCO3)cc1	inconclusive: 14.6 µM [inhibitor, single point]
O=C(Cc1ccccc1)Nc1cccc(NC(=O)c2ccccc2)c1	inconclusive: 29.1 µM [inhibitor, single point]
CCOC(=O)c1cccc(NC(=O)CCn2cccc2)c1	inconclusive: 10.3 µM [activator, partial curve, poor fit]
CN(CC(=O)Nc1cccc(F)c1)C(=O)c1ccccc1OCCOc1ccccc1	inactive
Cc1ccc(NC2CC(=O)N(c3ccc(C)cc3)C2=O)cc1 (centres undefined)	inconclusive: 18.4 µM [activator, single point]
CNc1nc(NN)nc(Nc2ccccc2)n1	inconclusive: 25.1 µM [inhibitor, single point]
CC(C)(C)c1n[nH]c2c1CCCC2	inactive
COc1nn(-c2ccccc2)c(=O)c(Cl)c1Cl	inconclusive: 29.1 µM [inhibitor, single point]
CCOc1ccc(N=C2NC(=O)C(CC(=O)Nc3ccccc3)S2)cc1 (centres undefined)	inconclusive: 16.4 µM [inhibitor, partial curve, poor fit]
COC(=O)[C@@H]1CC[C@H](C)[C@@H](c2ccc(C)cc2)N1C(=O)c1ccc(/C=N/O[C@@H](C)c2cn([C@H](CO)Cc3ccccc3)nn2)cc1	active: 14.6 µM
C=CCc1ccc(OCC(O)CN2CCN(Cc3ccc(Cl)cc3)CC2)c(OC)c1 (centres undefined)	inconclusive: 18.4 µM [inhibitor, single point]

4 structures from above, arranged by length of the SMILES, low to high.
Compound	Potency
CC(C)(C)c1n[nH]c2c1CCCC2	inactive
CC(C)C(=O)Nc1cccc(NC(=S)NC(=O)c2cccs2)c1	inconclusive: 9.2 µM [activator, partial curve]
O=C(O)c1ccc(S(=O)(=O)Nc2ccc3c(c2)OCCO3)cc1	inactive
COC(=O)[C@@H]1CC[C@H](C)[C@@H](c2ccc(C)cc2)N1C(=O)c1ccc(/C=N/O[C@@H](C)c2cn([C@H](CO)Cc3ccccc3)nn2)cc1	active: 14.6 µM

Continued:

Compound	Potency
CS(=O)(=O)c1ccc(-c2cccc(NC(=O)COc3ccccc3)c2)nn1	inactive
COc1ccc(S(=O)(=O)N(C)c2ccc(C(=O)N3CCCC3)cc2)cc1OC	inconclusive: 16.4 µM [inhibitor, partial curve, poor fit]
CCOC(=O)N1CCN(CC(=O)Nc2ccc(Oc3ccccc3)cc2)CC1	inconclusive: 25.9 µM [inhibitor, partial curve]
Cn1c(=O)c2c(nc(NCCNC(=O)c3ccco3)n2Cc2ccc(F)cc2)n(C)c1=O	inconclusive: 23.1 µM [inhibitor, single point]
CCOCCCNS(=O)(=O)c1ccc(NC(=O)c2ccccc2)cc1	inconclusive: 20.6 µM [inhibitor, partial curve]
COc1ccccc1Nc1nc(NCCC(C)C)nc(N)c1[N+](=O)[O-]	active: 20.6 µM
O=C(COC(=O)c1ccc(Cl)cc1[N+](=O)[O-])NNC(=O)c1cccs1	inconclusive: 6.51 µM [activator, single point]
COc1ccc(/C=N/n2c(C)nc3ccccc3c2=O)cc1	inconclusive: 16.4 µM [activator, partial curve]
Cc1cc(C)n(-c2nc(SCCN(C)C)c3c4c(sc3n2)CCCC4)n1	inactive
COc1cc(CN2CCN(C(C)C)C(CCO)C2)ccc1OCc1ccccc1 (centres undefined)	inconclusive: 29.1 µM [activator, single point]
COc1ccc(N2CCN(C(=O)CCC(=O)N3Cc4ccccc4Oc4ncccc43)CC2)cc1	inactive
COc1ccc2nc(NC(=O)C3CCCN(S(=O)(=O)c4cccc5nsnc45)C3)sc2c1 (centres undefined)	active: 11.6 µM
COc1ccc(O)c(C(=O)c2coc(=N)c(C(=O)Nc3ccc(SC(F)F)cc3)c2)c1	active: 16.4 µM
Cc1ccccc1CN(CC1CCC(C(=O)O)CC1)C(=S)Nc1ccccc1F (centres undefined)	inconclusive: 25.9 µM [activator, single point]
CC(=O)N1CCN(C(=O)c2ccc(-n3c(C)ccc3C)cc2)CC1	inactive
O=C(Nc1nc(-c2ccccc2)cs1)c1cccs1	inconclusive: 9.2 µM [activator, partial curve]
CC1CCN(c2c(NCc3ccc(C(=O)NCc4ccccc4)cc3)c(=O)c2=O)CC1	inconclusive: 18.3 µM [inhibitor, partial curve, poor fit]
CCOC(=O)c1ccc(NC(=O)COC)cc1	inconclusive: 11.2 µM [activator, partial curve, poor fit]
Cc1ccc2nc(Nc3nc(C)cc(-c4ccccc4)n3)[nH]c(=O)c2c1	inconclusive: 29.1 µM [activator, single point]
Cc1nnc(N/N=C/c2cc(C)n(-c3ccc(F)cc3)c2C)n1N	inactive
CCn1cc([N+](=O)[O-])c(C(=O)N2N=C(c3ccc4ccccc4c3)CC2c2ccccc2O)n1 (centres undefined)	inconclusive: 29.1 µM [inhibitor, single point]
COc1cc(/C=N/NC(=O)c2ccc(-c3ccccc3)cc2)cc(OC)c1OC	active: 16.4 µM
Cn1c(SCC(=O)N2CCCc3ccccc32)nnc1-c1c[nH]c2ccccc12	inconclusive: 25.9 µM [inhibitor, single point]

Compound	Potency
c1ccc2c(Nc3nc(N4CCOCC4)c4ccccc4n3)cccc2c1	active: 23.1 µM
Cc1cccc(CC(=O)N2CCN=C2SCc2ccc([N+](=O)[O-])cc2)c1	inconclusive: 32.6 µM [inhibitor, single point]
O=C(Nc1ccc(S(=O)(=O)Nc2nccs2)cc1)c1cnc(Cl)c(Cl)c1	inconclusive: 7.3 µM [inhibitor, partial curve]
CC1CCN(CCNC(=O)C2CCCN(c3ncnc4c3nc3n4CCCCC3)C2)CC1 (centres undefined)	inactive
Nc1nccc(-c2ccc(-n3cnc4ccccc43)cc2)n1	active: 7.3 µM
COc1cc(C(=O)NC(=S)Nc2ccc3c(c2)C(=O)N(C)C3=O)cc(OC)c1OC	inactive
CCNC(=O)O/N=C1\CCCCC1c1ccc([N+](=O)[O-])cc1[N+](=O)[O-] (centres undefined)	inactive
NCC(=O)NCC(=O)OCc1ccccc1	inactive
O=C(Cn1[nH]c(=O)c2ccccc2c1=O)OCC(=O)c1ccc(Br)cc1	inactive
COc1cccc(NC(=O)CNc2cc(S(=O)(=O)N3CCOCC3)ccc2N2CCCC2)c1	inconclusive: 16.4 µM [inhibitor, single point]
C=CC(C)N1C(=O)S/C(=C\c2ccc(N3CCOCC3)cc2C)C1=O (centres undefined)	inconclusive: 0.731 µM [activator, full curve, poor fit]
Cc1c(C(=O)O/N=C(\N)c2ccccn2)cccc1[N+](=O)[O-]	inconclusive: 1.64 µM [activator, partial curve]
CN(C(=O)c1cc(COc2c(F)cccc2F)on1)C1CCOC1 (centres undefined)	inconclusive: 20.6 µM [activator, partial curve]
Cc1nn(C)cc1C(=O)Nc1ccc2c(c1)OCCO2	inconclusive: 20.6 µM [activator, partial curve]
Cc1ccsc1C(=O)Nc1nc2ccccc2[nH]1	inconclusive: 2.59 µM [activator, partial curve]
CC(=O)Oc1c(C)cc(Cl)cc1C(=O)Nc1ccc([N+](=O)[O-])cc1Cl	inconclusive: 6.51 µM [activator, full curve]
COCCNC(=O)c1c(N)n(/N=C/c2cccs2)c2nc3ccccc3nc12	inconclusive: 18.4 µM [inhibitor, single point]
C=C(C)c1ccccc1	inactive
Cc1ccc(Nc2ccc(C(=O)O)cc2N)cc1	inconclusive: 9.2 µM [activator, partial curve]
C/C(N)=C(/C#N)C(=O)CSc1n[nH]c(-c2cccs2)n1	inconclusive: 18.3 µM [activator, single point]
COc1ccccc1C1CCN(C(=O)c2cnn(-c3ccccc3)c2C)CC1	inconclusive: 20.6 µM [inhibitor, single point]
CC1CCc2sc(C(=O)NN)cc2C1 (centres undefined)	inconclusive: 29.1 µM [inhibitor, single point]
COc1ccc(C(=O)C2CCCN(C(=O)c3ccc4cc[nH]c4c3)C2)c(C)c1 (centres undefined)	inconclusive: 29.1 µM [inhibitor, single point]
